# Experimental data as given in PubChem BioAssay AID1688 (National Center for Advancing Translational Sciences (NCATS), 2009).
# In all, about 220,000 compounds went through this assay and about 2,400 (1.1%) were called active. This list was built around the results that the source calls inconclusive (neither active nor inactive); the mix of calls is not that of the screen. Calls follow the shape of the dose curve; as a rule, active = well fitted inhibition curve with a large enough effect; inconclusive = small, poorly fitted or top-dose-only effect, or effect the other way; inactive = no such curve, though single readings can be large or run the other way. A potency beside an inconclusive call is a rough fit, not a confirmed value.
# Assay: qHTS Multiplex Assay to Identify Dual Action Probes in a Cell Model of Huntington: Aggregate Formation (GFP); also: nearly all actives have a fitted effect of over 60% in size
# Conditions: PC12 HttQ103-GFP aggregates, Acumen cytometry, 40 h; activity change, negative = inhibition: at 46.1 µM (top of the series) unless noted
# How it was run: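 PC12 cells stably carrying ecdysone-inducible HTT exon 1 Q103–GFP were induced with tebufenozide (100 nM final) and treated with library compounds in titration. GFP aggregates in lysates were counted by laser scanning cytometry.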
# % is scaled to controls: 0 for no effect and ±100 for the full control effect; potency is read from the fitted curve at half-maximal effect.
Structure (SMILES),Potency,"activity change, negative = inhibition"
O=C(NNC1=C(C(=O)C(F)(F)F)CCC1)c1cccc(O)c1,"inconclusive: 35.5 µM [inhibitor, single point]",–
COc1ccccc1NC(=O)CSc1c2c(nc3ccccc13)CCC2,active: 35.5 µM,–
O=C(C(Cc1ccccc1)n1cccc1)N1CCN(c2cccc(Cl)c2)CC1 (stereo not given),"inconclusive: 17.8 µM [inhibitor, single point]",–
O=C(Nc1ccc(N2CCCC2)cc1)c1cccc(-c2cc3ccccc3oc2=O)c1,inactive,–
Cc1ccc(NC2=C/C(=N\S(=O)(=O)c3cccs3)c3ccccc3C2=O)c(C)c1,active: 2.24 µM,–
O=C(Nc1ccc2c(c1)OCCO2)NC12CC3CC(CC(C3)C1)C2,"inconclusive: 22.4 µM [inhibitor, single point]",–
O=C(Nc1ccccc1NC(=O)c1c(F)c(F)c(F)c(F)c1F)c1c(F)c(F)c(F)c(F)c1F,"inconclusive: 17.8 µM [activator, partial curve]",–
CCCCOc1ccc(C(=O)N/C(=C/C=C/c2ccccc2)C(=O)NCCO)cc1,inactive,–
CCC(C(=O)OC)n1cnc2c(nnn2-c2ccc(OC)cc2)c1=O (stereo not given),inactive,–
O=S(=O)([N-]c1nc2ccccc2nc1-n1cc[n+](Cc2ccccc2)c1)c1ccc(Cl)cc1,–,inactive: 36.6% [at 9.22 µM]
NC(=O)Oc1cccc(OC(N)=O)c1,–,inactive: 5.37% [at 9.22 µM]
Cc1nc(N2CCCCC2)c(C#N)c(C)c1[N+](=O)[O-],inactive,–
COc1cccc(NC(=O)Cn2cc3c(n2)CCCCC3)c1,inactive,–
Cc1ccsc1C(=O)Nc1nnc(-c2ccco2)o1,"inconclusive: 15.8 µM [inhibitor, partial curve]",–
CCOc1cccc(NCc2cc3c(C(C)(C)C)nn(-c4ccccc4)c3[nH]c2=O)c1,"inconclusive: 0.891 µM [inhibitor, single point]",–
CC(C#N)Sc1ncnc2sc3c(c12)CCC3 (stereo not given),"inconclusive: 14.1 µM [inhibitor, single point]",–
O=C(CCN1C(=O)/C(=C/C=C/c2ccccc2)SC1=S)Nc1cccnc1,"inconclusive: 11.2 µM [activator, partial curve]",–
O=C(Nc1ccc(Cl)cc1)NC1CCCC1Cc1ccco1 (stereo not given),"inconclusive: 35.5 µM [inhibitor, single point]",–
CC(=O)Nc1ccc(N/C(C)=C/C(=O)c2cccnc2)cc1,"inconclusive: 15.8 µM [inhibitor, single point]",–
CC(=O)C[C@H](c1ccc([N+](=O)[O-])cc1)c1c(O)c2ccccc2oc1=O,inactive,–
Nc1cc(=O)[nH]c(SCC(=O)Nc2ccc(S(=O)(=O)N3CCOCC3)cc2)n1,inactive,–
O=C(c1ccc2ccccc2c1)N1CCN(S(=O)(=O)/C=C/c2ccccc2)CC1,"inconclusive: 35.5 µM [inhibitor, single point]",–
COc1ccc(CNC(=O)CCS(=O)(=O)c2cccc3nonc23)cc1,active: 6.31 µM,–
O=C(Nc1cccnc1Cl)c1noc2c1CCc1ccccc1-2,"inconclusive: 3.55 µM [activator, single point]",–

# In the list so far, these contain a cyano group:
Structure (SMILES),Potency,"activity change, negative = inhibition"
Cc1nc(N2CCCCC2)c(C#N)c(C)c1[N+](=O)[O-],inactive,–
CC(C#N)Sc1ncnc2sc3c(c12)CCC3 (stereo not given),"inconclusive: 14.1 µM [inhibitor, single point]",–

# (listing goes on)

Structure (SMILES),Potency,"activity change, negative = inhibition"
Cc1ccc(C)c(CS(=O)(=O)c2cn(CC(=O)N3CCCCC3)c3ccccc23)c1,"inconclusive: 5.62 µM [activator, single point]",–
Cc1cc(C)n(-c2nnc(NCc3ccc(Cl)cc3)nn2)n1,"inconclusive: 11.2 µM [inhibitor, single point]",–
Cc1ccc(NC(=O)CN(C)S(=O)(=O)c2cccc3nsnc23)cc1Cl,"inconclusive: 35.5 µM [inhibitor, single point]",–
O=C(O/N=C(\c1ccccc1)c1ccccn1)c1ccc(Cl)c(Cl)c1,inactive,–
Cc1nnc(NC(=O)c2ccc(S(=O)(=O)N3CCc4ccccc4C3)cc2)o1,"inconclusive: 2 µM [inhibitor, single point]",–
CC1CC(C)CN(CC(=O)N2CCCc3c2c(=O)oc2ccc(OCc4ccccc4)cc32)C1 (stereo not given),"inconclusive: 35.5 µM [inhibitor, single point]",–
Cc1ccc(S(=O)(=O)ON2C(=O)c3ccccc3C2=O)c(C)c1,inactive,–
CC(C)(C)c1ccc(CN2N=Nc3ccccc3S2(=O)=O)cc1,–,inactive: -10.4% [at 9.22 µM]
O=C(O)/C=C/C(=O)Nc1ccccc1C(=O)Nc1ccccc1,"inconclusive: 12.6 µM [activator, partial curve]",–
COc1ccccc1C(=O)N/N=C(\C)c1ccc(NC(=O)C2CC2)cc1,"inconclusive: 11.2 µM [activator, single point]",–
CC(C)CSc1n[nH]c(=S)s1,inactive,–
C=CCS(=O)(=O)c1nc2ccccc2s1,"inconclusive: 35.5 µM [inhibitor, single point]",–
Cc1ccc(C)n1-c1ccc(C(=O)N2CCOCC2)cc1,"inconclusive: 14.1 µM [activator, single point]",–
COc1ccc(C(=O)N[C@H](C(=O)Nc2ccc(OC)nc2)C(C)C)cc1,inactive,–
[O-]/[N+](=C\C=C\c1ccccc1)c1ccccc1,–,inactive: -9.27% [at 9.22 µM]
CCC(=O)N1CCN(c2ccc(NC(=O)c3ccc(C#N)cc3F)cc2Cl)CC1,"inconclusive: 14.1 µM [inhibitor, single point]",–
N#Cc1ccc(-c2nc3cc(C#N)c(C#N)cc3nc2-c2ccccc2)cc1C#N,"inconclusive: 4.47 µM [activator, partial curve]",–
CCC(C)(C)n1nnnc1C(c1cc2cc(OC)c(OC)cc2[nH]c1=O)N1CCc2ccccc21 (stereo not given),"inconclusive: 22.4 µM [inhibitor, single point]",–
Cc1nnc(NC(=O)Cc2cccs2)s1,"inconclusive: 5.01 µM [inhibitor, single point]",–
Cn1c(SCC(=O)c2ccc3c(c2)OCO3)nnc1-c1ccccn1,"inconclusive: 17.8 µM [activator, partial curve]",–
COC(=O)c1cccc2c1-c1ccccc1/C2=N/O,active: 10 µM,–
CCCNC(=O)NC(=O)CSc1nnc(C)n1N,"inconclusive: 17.8 µM [activator, single point]",–
O=C(NC1CCCCC1)c1ccc(CNc2nc(=S)[nH]c3ccccc23)cc1,inactive,–
Cc1ccc(OCC(=O)N/N=C\c2c(C)[nH]n(-c3ccccc3)c2=O)c([N+](=O)[O-])c1,"inconclusive: 11.2 µM [inhibitor, partial curve]",–

Structure (SMILES),Potency,"activity change, negative = inhibition"
FC(F)Sc1nc2ccccc2[nH]1,–,inactive: -3.15% [at 9.22 µM]
COc1ccc(Cl)cc1N(CC(=O)NCC(C)C)S(=O)(=O)c1ccc(C)c([N+](=O)[O-])c1,"inconclusive: 5.62 µM [inhibitor, single point]",–
COc1ccc(CNC(=O)CN(Cc2cccs2)C(=O)CCC(=O)Nc2ccccn2)cc1,"inconclusive: 3.55 µM [inhibitor, single point]",–
COc1ccc2nc(/N=C(\N)NC(=O)Nc3ccccc3)nc(C)c2c1,"inconclusive: 35.5 µM [inhibitor, single point]",–
Oc1ccc(Cl)cc1-c1cc(-c2cccc(Br)c2)n[nH]1,"inconclusive: 5.62 µM [inhibitor, single point]",–
CCOc1ccc(C(=O)O/N=C(\N)c2ccc([N+](=O)[O-])cc2)cc1OCC,"inconclusive: 35.5 µM [activator, single point]",–
CCN(CC)c1ccc(/C=N/N(c2ccccc2)c2ccccc2)c(O)c1,"inconclusive: 10 µM [inhibitor, partial curve]",–
COc1ccc(C2(CNC(=O)c3cc([N+](=O)[O-])cc([N+](=O)[O-])c3)CCCC2)cc1OC,"inconclusive: 35.5 µM [activator, single point]",–
CCSc1nnc(NC(=O)CSc2nc(CC)nc3c2c(=O)n(C)c(=O)n3C)s1,"inconclusive: 10 µM [inhibitor, single point]",–
CC(C)Nc1nnc(SCc2cc(=O)n3ccsc3n2)s1,"inconclusive: 4.47 µM [inhibitor, single point]",–
Cc1c(C(=O)c2ccc(Cl)cc2Cl)cnc2cc3c(cc12)OCO3,"inconclusive: 35.5 µM [inhibitor, single point]",–
CCOC(=O)c1c(-c2ccc(OC)cc2)csc1/N=C/C1=C(O)CCCC1=O,"inconclusive: 20 µM [inhibitor, single point]",–
CCCCNC(=S)Nc1ccc(C(F)(F)F)cc1,"inconclusive: 22.4 µM [inhibitor, single point]",–
Cc1ccc(-n2c(C)cc(C(=O)CSc3nnnn3C)c2C)cc1,"inconclusive: 20 µM [inhibitor, single point]",–
Cc1c(CCOC(=O)CC23CC4CC(CC(C4)C2)C3)sc[n+]1Cc1ccccc1,active: 11.2 µM,–
COC(=O)c1cc(NC(=O)c2ccccc2)c(=O)oc1/C=C/Nc1ccc(Oc2ccccc2)cc1,"inconclusive: 14.1 µM [inhibitor, single point]",–
Cc1cccc(/C=C/C(=O)c2ccc(NC3=NCCCS3)cc2)c1,inactive,–
Cc1ccc(S(=O)(=O)Oc2ccccc2/C=N/NC(=O)c2nn(C)cc2[N+](=O)[O-])cc1,"inconclusive: 1.78 µM [activator, partial curve, poor fit]",–
COc1ccc(OC)c(S(=O)(=O)Nc2ccc(O)c3ccccc23)c1,active: 17.8 µM,–
Cc1ccc(C)c(NC(=O)C(=O)NCCCN2CCOCC2)c1,"inconclusive: 2.82 µM [activator, single point]",–
CCOC(=O)c1nc2sc(C)c(C)c2c(=O)[nH]1,inactive,–
Cc1onc(-c2ccccc2Cl)c1C(=O)N/N=C(\N)COc1ccc(Cl)cc1,"inconclusive: 12.6 µM [inhibitor, partial curve]",–
